Results: the supplement of paper PMC10849652
Some of the results follow.

By UniProt entry, the sequences of proteins in these tests, tags left out. Where a name states a change or a piece, a line headed by the entry shows the natural chain unless it says otherwise.
UniProt P80511: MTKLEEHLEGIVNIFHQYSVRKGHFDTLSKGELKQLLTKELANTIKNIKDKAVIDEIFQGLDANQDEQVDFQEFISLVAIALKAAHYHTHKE
UniProt P60903, whole entry, looked up: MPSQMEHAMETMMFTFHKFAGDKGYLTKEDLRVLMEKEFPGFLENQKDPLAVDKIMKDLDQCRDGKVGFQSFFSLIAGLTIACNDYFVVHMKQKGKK
UniProt Q92681: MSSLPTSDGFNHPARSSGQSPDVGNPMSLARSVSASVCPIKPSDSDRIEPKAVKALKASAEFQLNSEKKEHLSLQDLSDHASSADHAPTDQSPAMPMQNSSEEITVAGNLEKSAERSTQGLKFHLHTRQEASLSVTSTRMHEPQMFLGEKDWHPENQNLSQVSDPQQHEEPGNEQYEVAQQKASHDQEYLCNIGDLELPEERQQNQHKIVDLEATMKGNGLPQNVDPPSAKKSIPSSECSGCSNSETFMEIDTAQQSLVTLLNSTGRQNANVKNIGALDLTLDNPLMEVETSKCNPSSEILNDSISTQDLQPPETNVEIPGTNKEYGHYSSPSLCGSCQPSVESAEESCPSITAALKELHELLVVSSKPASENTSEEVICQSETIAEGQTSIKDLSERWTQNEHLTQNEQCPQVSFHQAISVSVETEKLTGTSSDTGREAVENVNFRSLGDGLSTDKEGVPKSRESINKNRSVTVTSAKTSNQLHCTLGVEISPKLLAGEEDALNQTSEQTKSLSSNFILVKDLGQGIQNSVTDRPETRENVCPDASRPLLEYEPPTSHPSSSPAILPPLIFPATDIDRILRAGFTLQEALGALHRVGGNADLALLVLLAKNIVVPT
UniProt Q8N2Y8: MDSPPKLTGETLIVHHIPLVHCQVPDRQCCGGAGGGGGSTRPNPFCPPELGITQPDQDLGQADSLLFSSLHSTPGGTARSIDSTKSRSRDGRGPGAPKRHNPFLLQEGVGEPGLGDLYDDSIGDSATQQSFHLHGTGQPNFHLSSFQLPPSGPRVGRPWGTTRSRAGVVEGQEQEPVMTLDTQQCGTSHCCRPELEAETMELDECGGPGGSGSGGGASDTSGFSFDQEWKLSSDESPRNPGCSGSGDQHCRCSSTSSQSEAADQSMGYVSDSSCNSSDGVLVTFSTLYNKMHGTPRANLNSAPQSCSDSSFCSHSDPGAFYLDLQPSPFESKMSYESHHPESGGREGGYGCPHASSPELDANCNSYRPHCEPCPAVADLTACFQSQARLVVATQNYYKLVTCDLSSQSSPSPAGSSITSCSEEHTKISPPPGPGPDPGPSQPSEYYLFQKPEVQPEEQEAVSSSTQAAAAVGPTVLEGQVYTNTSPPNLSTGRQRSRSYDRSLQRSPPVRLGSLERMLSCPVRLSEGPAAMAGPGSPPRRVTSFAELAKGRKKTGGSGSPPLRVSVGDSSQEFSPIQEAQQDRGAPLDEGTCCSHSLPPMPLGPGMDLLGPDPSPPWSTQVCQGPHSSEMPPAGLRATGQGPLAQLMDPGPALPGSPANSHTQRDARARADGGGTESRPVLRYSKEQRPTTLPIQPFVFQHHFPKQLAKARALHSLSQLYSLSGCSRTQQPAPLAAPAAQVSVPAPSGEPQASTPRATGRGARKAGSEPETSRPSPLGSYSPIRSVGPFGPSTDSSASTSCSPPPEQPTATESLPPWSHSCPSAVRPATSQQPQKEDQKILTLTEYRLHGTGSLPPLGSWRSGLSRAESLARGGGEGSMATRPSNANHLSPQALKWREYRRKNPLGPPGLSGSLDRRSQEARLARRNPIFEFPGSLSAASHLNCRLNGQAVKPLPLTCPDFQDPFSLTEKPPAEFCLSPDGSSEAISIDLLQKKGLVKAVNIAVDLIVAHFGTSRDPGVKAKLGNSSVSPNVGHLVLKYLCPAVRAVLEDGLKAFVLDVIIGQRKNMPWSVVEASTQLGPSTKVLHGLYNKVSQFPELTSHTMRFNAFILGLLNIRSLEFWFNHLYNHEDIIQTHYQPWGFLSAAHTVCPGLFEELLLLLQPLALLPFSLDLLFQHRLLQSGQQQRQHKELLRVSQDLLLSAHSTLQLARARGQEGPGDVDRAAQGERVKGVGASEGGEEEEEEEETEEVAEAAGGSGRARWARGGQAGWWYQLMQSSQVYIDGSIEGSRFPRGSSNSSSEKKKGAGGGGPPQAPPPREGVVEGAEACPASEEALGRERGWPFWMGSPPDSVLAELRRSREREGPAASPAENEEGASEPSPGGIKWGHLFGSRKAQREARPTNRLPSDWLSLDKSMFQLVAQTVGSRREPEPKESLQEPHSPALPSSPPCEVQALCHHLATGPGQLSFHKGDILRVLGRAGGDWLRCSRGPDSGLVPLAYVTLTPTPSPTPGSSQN
UniProt Q9BWD3: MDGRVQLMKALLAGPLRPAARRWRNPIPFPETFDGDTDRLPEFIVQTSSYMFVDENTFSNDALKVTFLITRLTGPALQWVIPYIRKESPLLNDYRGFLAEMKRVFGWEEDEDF
UniProt Q9NQC3: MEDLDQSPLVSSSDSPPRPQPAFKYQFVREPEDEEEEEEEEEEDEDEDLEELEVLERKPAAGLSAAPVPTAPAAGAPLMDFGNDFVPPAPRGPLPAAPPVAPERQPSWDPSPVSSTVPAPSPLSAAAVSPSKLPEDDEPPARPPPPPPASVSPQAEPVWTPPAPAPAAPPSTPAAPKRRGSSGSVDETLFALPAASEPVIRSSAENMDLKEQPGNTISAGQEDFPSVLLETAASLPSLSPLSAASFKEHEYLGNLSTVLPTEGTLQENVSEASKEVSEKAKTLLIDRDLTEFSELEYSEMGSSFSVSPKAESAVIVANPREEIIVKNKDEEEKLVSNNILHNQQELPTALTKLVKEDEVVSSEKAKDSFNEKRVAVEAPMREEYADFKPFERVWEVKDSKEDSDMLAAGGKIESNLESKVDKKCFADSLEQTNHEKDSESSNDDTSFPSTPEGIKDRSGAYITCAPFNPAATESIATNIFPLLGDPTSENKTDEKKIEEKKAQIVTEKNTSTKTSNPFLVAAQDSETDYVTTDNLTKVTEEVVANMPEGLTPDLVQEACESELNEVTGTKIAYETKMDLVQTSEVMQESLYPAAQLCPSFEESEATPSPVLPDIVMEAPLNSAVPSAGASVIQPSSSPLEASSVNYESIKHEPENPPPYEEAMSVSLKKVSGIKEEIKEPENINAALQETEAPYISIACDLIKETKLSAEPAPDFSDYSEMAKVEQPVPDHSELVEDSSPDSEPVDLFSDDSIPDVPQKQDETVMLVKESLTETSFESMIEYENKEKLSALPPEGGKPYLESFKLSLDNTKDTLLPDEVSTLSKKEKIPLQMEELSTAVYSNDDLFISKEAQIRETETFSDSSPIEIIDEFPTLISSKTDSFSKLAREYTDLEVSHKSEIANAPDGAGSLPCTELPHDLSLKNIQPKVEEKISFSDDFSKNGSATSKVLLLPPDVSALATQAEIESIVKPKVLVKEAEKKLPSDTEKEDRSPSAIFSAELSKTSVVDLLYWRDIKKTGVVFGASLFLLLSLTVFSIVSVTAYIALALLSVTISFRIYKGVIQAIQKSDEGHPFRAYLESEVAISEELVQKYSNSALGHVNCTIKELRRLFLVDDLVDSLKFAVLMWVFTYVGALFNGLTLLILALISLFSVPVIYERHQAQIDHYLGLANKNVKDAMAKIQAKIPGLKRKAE
UniProt Q8WXA3: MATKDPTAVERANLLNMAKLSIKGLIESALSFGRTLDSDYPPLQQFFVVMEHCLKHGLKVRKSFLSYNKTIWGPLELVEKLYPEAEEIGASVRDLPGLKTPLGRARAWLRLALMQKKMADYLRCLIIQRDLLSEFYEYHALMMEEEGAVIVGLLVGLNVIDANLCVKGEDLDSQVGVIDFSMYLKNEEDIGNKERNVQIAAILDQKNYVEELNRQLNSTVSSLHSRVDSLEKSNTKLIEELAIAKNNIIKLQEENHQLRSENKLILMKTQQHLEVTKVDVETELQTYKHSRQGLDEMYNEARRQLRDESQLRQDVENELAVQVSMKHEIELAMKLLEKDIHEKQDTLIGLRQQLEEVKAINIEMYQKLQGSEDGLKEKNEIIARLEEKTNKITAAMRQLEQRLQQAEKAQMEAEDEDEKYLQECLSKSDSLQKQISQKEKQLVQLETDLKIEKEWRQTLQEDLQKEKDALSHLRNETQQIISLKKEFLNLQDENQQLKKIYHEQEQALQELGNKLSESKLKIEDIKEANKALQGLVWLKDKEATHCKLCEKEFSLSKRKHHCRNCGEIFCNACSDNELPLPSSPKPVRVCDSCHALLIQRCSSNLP
UniProt Q9HCY8: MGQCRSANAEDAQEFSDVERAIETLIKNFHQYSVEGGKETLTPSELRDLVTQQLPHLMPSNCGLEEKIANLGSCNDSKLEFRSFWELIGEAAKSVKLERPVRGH
UniProt A6ZKI3: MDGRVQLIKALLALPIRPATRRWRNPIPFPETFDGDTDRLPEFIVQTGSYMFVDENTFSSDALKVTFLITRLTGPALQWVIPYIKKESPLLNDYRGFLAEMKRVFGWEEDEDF

How the values were obtained:
Experiment in all cases: log2 fold change, soluble protein after heating vs DMSO (PISA); higher = thermal stabilisation; K562 lysate, 10 uM; active = over 0.2 and 3.5 SD of the protein, either way, in both replicates (recomputed)
vemurafenib = compound: CCCS(=O)(=O)Nc1ccc(F)c(C(=O)c2c[nH]c3ncc(-c4ccc(Cl)cc4)cc23)c1F [vemurafenib]
In short: (§1)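 To prepare the extract, K562 pellets were dounce-homogenised in PBS pH 7.4 with 1 mM MgCl2, giving crude material at 1 mg/mL protein. This was treated with 10 μM compound for 30 min, then heated in aliquots for 3 min over 48°C-58°C before pooling and addition of NP-40 to 0.5% at 4°C. Centrifugation at 21,000xg for 90 min left soluble protein in the supernatant, which TMTpro 16plex LC-MS/MS quantified with equalised channel sums. Results are log-two fold changes in thermal stability compared with solvent controls, from duplicates.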

defactinib = compound: CNC(=O)c1ccc(Nc2ncc(C(F)(F)F)c(NCc3nccnc3N(C)S(C)(=O)=O)n2)cc1 [defactinib]
In short: as §1

barasertib = compound: CCN(CCCOc1ccc2c(Nc3cc(CC(=O)Nc4cccc(F)c4)[nH]n3)ncnc2c1)CCOP(=O)(O)O [barasertib]
In short: as §1

[1] = compound: CCn1c(C(=O)N(C2CC2)C2CC2)cc2c3c(ncn3C)c(Nc3cc(C)n(C)n3)nc21
In short: as §1

saracatinib = compound: CN1CCN(CCOc2cc(OC3CCOCC3)c3c(Nc4c(Cl)ccc5c4OCO5)ncnc3c2)CC1 [saracatinib]
In short: as §1

sotrastaurin = compound: CN1CCN(c2nc(C3=C(c4c[nH]c5ccccc45)C(=O)NC3=O)c3ccccc3n2)CC1 [sotrastaurin]
In short: as §1

Tubastatin A = compound: CN1CCc2c(c3ccccc3n2Cc2ccc(C(=O)NO)cc2)C1 [Tubastatin A]
In short: as §1

[2] = compound: CNC(=O)C1=CC=CC=C1NC2=NC(=NC=C2Cl)NC3=C(C=C(C=C3)N4CCOCC4)OC
In short: as §1

[3] = compound: CNc1nc(-c2ccc3c(N)n[nH]c3c2)cc(N2C[C@@H](C(=O)NC3CCCCC3)CC[C@H]2C)n1
In short: as §1

alisertib = compound: COc1cc(Nc2ncc3c(n2)-c2ccc(Cl)cc2C(c2c(F)cccc2OC)=NC3)ccc1C(=O)O [alisertib]
In short: as §1

gefitinib = compound: COc1cc2ncnc(Nc3ccc(F)c(Cl)c3)c2cc1OCCCN1CCOCC1 [gefitinib]
In short: as §1

[4] = compound: CCn1cc(-c2ccnc3[nH]c(-c4cccc(CN(C)C)c4)cc23)c(-c2ccc(NC(=O)N(C)C)cc2)n1
In short: as §1

[5] = compound: CN1CCC(CNc2ccc3ncc(-c4cccc(OC(F)(F)F)c4)n3n2)CC1
In short: as §1

alvocidib = compound: CN1CC[C@H](c2c(O)cc(O)c3c(=O)cc(-c4ccccc4Cl)oc23)[C@H](O)C1 [alvocidib]
In short: as §1

[6] = compound: CC[C@@H]1C(=O)N(C)c2cnc(Nc3ccc(C(=O)NC4CCN(C)CC4)cc3OC)nc2N1C1CCCC1
In short: as §1

encorafenib = compound: COC(=O)N[C@@H](C)CNc1nccc(-c2cn(C(C)C)nc2-c2cc(Cl)cc(NS(C)(=O)=O)c2F)n1 [encorafenib]
In short: as §1

[7] = compound: COC(=O)[C@H](CCSC)NC(=O)C1=C(C=C(C=C1)NC[C@H](CS)N)C2=CC=CC=C2
In short: as §1

[8] = compound: CCCS(=O)(=O)Nc1ccc(F)c(C(=O)c2c[nH]c3ncc(Cl)cc23)c1F
In short: as §1

volasertib = compound: CC[C@@H]1C(=O)N(C)c2cnc(Nc3ccc(C(=O)N[C@H]4CC[C@H](N5CCN(CC6CC6)CC5)CC4)cc3OC)nc2N1C(C)C [volasertib]
In short: as §1

[9] = compound: COc1cc2nc(-c3cc(F)ccc3O)nc(N[C@@H]3CNC[C@H]3C(C)(C)O)c2cc1OC
In short: as §1

Measured: log2 fold change

S100A12 (UniProt P80511)
inactive: vemurafenib -0.034 | defactinib -1.68

S100A10 (UniProt P60903)
inactive: barasertib 0.309 | [1] -0.198 | saracatinib 0.768 | sotrastaurin 0.331 | Tubastatin A -0.076 | [2] -0.01 | [3] -0.171 | alisertib 0.026 | gefitinib 0.133

RSC1A1 (UniProt Q92681)
inactive: barasertib 0.009 | saracatinib 0.139 | sotrastaurin 0.053 | [3] -0.128 | alisertib 0.052 | gefitinib 0.072

RUSC2 (UniProt Q8N2Y8)
inactive: vemurafenib 0.428 | barasertib -0.012 | [1] 0.06 | [4] 0.025 | [5] 0.038 | saracatinib 0.153 | alvocidib -0.011 | Tubastatin A -0.016 | [2] 0.031 | defactinib 0.044 | [3] -0.009 | alisertib -0.149 | gefitinib -0.269

RTL8A (UniProt Q9BWD3)
inactive: vemurafenib -0.117 | [6] 0.024 | sotrastaurin 0.031 | defactinib 0.075 | encorafenib -0.054 | [7] -0.141

RSL24D1 (UniProt Q9UHA3)
inactive: [8] 0.039 | [6] 0.195 | volasertib 0.01 | [1] -0.006 | [4] 0 | [5] -0.094 | saracatinib 0.049 | sotrastaurin -0.201 | alvocidib 0.041 | Tubastatin A -0.01 | [2] 0.145 | [3] 0.044 | encorafenib -0.147 | [7] 0.029 | alisertib -0.047 | [9] 0 | gefitinib 0.012

RYR1 (UniProt P21817)
inactive: [8] -0.038 | barasertib 0.041 | [6] 0.07 | volasertib -0.049 | [1] -0.053 | [4] 0.045 | [5] 0.03 | saracatinib 0.057 | sotrastaurin 0.091 | alvocidib 0.015 | Tubastatin A 0.097 | [2] 0.064 | [3] 0.16 | encorafenib -0.024 | [7] -0.087 | [9] 0.02

RPP30 (UniProt Q5VU11)
inactive: vemurafenib 0.129 | [6] 0.127 | defactinib -0.215 | encorafenib -0.004 | [7] -0.049

RPS3 (UniProt E9PJN9)
inactive: vemurafenib -0.072 | [6] -0.038 | [1] 0.088 | sotrastaurin 0.004 | Tubastatin A -0.183 | defactinib -0.064 | encorafenib -0.036 | [7] 0.049

RTN4 isoform 3 (UniProt Q9NQC3)
inactive: [6] 0.144 | encorafenib -0.374 | [7] 0.042

Fetched one by one from above, two records:
RPP30 (UniProt Q5VU11)
inactive: vemurafenib 0.129 | [6] 0.127 | defactinib -0.215 | encorafenib -0.004 | [7] -0.049

RPS3 (UniProt E9PJN9)
inactive: vemurafenib -0.072 | [6] -0.038 | [1] 0.088 | sotrastaurin 0.004 | Tubastatin A -0.183 | defactinib -0.064 | encorafenib -0.036 | [7] 0.049

Next part

RUFY2 isoform 1 (UniProt Q8WXA3)
inactive: vemurafenib 0.01 | barasertib -0.206 | [6] 0.038 | [1] -0.026 | [4] -0.009 | [5] -0.178 | sotrastaurin 0.001 | alvocidib 0.01 | Tubastatin A 0.074 | defactinib 0.066 | encorafenib 0.13 | [7] -0.031 | alisertib 0.003 | gefitinib 0.053

S100A14 (UniProt Q9HCY8)
inactive: [8] -0.036 | barasertib 0.248 | [6] -0.332 | volasertib -0.039 | [1] 0.17 | saracatinib 0.104 | Tubastatin A 0.168 | [2] -0.024 | [3] -0.373 | encorafenib 0 | [7] 0.219 | [9] -0.15

RTL8C (UniProt A6ZKI3)
inactive: vemurafenib 0.049 | [6] -0.168 | [1] 0.04 | saracatinib -0.178 | sotrastaurin 0.065 | Tubastatin A -0.098 | [2] -0.139 | defactinib -0.055 | [3] -0.101 | encorafenib -0.064 | [7] 0.207 | alisertib 0.09 | gefitinib -0.011
